The other results are listed elsewhere or left out.
Key:
Test in all cases: log2 fold change, soluble protein after heating vs DMSO (PISA); higher = thermal stabilisation; K562 cells, 10 uM, 30 min; active = over 0.2 and 3.5 SD of the protein, either way, in both replicates (recomputed)
saracatinib = compound: CN1CCN(CCOc2cc(OC3CCOCC3)c3c(Nc4c(Cl)ccc5c4OCO5)ncnc3c2)CC1 [saracatinib]
Outline: (§1)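 Values are thermal stability changes relative to control samples and are taken from duplicates. They are stated as log2 fold changes. Before quantification by TMTpro 16plex LC-MS/MS with equalised channel sums, K562 cells at 2×10^6 cells/mL were treated with 10 μM compound for 30 min, heated in aliquots for 3 min across 48°C-58°C, pooled, extracted in PBS with 0.5% NP-40 at 4°C, and centrifuged at 21,000xg for 90 min to give the soluble supernatant.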

Protein sequences, listed by entry. Tags and fused reporters are not part of them. Lines headed by an entry give the natural chain unless they say otherwise; changes in a name come on top.
UniProt Q9C0C4, whole entry, looked up: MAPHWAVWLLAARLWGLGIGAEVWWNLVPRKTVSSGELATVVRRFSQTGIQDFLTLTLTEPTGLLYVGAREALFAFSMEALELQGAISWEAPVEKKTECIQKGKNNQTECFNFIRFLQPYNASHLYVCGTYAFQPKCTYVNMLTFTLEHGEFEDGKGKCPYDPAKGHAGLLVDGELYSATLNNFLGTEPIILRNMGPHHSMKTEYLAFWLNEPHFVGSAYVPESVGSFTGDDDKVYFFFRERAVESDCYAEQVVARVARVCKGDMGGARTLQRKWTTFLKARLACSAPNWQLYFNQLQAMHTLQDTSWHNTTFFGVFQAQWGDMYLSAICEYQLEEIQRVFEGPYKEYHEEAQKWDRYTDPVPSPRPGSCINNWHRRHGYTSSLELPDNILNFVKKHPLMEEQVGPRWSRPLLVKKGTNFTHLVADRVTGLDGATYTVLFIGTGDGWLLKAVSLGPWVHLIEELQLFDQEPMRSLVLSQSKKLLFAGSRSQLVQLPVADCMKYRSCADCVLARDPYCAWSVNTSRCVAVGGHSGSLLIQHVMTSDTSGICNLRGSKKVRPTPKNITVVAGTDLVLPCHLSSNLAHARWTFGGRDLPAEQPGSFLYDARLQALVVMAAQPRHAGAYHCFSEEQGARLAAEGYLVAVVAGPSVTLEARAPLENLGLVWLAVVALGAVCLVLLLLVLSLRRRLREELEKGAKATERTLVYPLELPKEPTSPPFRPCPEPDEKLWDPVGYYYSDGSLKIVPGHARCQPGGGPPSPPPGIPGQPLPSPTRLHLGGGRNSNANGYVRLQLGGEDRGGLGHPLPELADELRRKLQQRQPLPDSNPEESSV
UniProt Q9Y3L3: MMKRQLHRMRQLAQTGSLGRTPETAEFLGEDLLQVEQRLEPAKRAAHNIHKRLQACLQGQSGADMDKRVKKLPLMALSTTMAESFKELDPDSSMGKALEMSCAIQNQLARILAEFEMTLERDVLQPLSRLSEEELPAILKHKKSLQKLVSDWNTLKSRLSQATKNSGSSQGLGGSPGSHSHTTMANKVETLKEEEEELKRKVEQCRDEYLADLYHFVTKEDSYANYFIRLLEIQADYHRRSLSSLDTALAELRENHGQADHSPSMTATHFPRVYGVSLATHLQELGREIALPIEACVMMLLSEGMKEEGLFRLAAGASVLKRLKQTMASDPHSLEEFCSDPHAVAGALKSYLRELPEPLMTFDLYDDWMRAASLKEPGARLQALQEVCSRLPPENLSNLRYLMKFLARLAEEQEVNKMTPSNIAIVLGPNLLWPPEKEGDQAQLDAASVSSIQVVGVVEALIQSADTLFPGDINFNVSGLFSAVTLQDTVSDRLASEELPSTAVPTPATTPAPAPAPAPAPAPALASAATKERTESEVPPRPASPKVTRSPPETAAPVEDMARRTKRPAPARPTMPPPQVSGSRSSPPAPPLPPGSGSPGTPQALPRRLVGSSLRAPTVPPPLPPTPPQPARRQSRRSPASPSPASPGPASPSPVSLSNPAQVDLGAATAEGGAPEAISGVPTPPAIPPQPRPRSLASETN
UniProt P29353: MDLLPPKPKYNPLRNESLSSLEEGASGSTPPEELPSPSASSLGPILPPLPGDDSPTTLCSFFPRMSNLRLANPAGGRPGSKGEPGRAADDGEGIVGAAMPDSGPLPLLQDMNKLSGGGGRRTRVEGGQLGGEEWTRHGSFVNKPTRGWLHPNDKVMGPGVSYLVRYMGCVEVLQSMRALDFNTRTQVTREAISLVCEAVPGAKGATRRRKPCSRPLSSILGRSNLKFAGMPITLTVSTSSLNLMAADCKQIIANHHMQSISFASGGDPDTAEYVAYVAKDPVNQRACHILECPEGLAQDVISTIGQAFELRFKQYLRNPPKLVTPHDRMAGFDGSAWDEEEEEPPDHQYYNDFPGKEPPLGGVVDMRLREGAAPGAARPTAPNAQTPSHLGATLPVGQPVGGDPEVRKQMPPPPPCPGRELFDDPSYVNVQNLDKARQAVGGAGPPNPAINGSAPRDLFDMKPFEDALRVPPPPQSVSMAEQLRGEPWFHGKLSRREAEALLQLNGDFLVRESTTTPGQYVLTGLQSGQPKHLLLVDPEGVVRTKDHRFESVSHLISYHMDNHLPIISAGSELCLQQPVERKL
UniProt Q9UQ13: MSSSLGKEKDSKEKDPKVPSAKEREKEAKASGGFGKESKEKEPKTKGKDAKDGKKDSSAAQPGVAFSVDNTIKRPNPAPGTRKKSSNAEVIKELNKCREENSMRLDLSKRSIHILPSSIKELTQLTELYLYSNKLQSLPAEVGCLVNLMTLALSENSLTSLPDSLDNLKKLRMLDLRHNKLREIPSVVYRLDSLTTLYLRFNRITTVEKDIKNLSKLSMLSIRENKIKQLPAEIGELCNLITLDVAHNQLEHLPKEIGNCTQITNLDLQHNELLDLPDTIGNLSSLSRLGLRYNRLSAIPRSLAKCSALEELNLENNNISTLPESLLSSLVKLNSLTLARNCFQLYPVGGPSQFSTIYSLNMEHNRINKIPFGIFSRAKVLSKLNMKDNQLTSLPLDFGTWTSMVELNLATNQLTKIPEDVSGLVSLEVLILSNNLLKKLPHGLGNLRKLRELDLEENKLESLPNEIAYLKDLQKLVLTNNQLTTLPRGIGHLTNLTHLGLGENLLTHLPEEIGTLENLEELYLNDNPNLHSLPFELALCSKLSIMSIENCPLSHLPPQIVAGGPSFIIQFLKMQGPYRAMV
UniProt Q9H9B4: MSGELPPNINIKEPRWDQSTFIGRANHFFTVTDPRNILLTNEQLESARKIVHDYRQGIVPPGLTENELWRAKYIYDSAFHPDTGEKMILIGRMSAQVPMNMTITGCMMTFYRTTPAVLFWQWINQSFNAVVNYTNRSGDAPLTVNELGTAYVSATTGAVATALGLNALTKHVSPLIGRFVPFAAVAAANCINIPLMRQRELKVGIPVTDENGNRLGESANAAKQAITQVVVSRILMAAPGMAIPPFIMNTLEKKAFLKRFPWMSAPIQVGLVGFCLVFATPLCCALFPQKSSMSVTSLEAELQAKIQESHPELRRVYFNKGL
UniProt O60613, whole entry, looked up: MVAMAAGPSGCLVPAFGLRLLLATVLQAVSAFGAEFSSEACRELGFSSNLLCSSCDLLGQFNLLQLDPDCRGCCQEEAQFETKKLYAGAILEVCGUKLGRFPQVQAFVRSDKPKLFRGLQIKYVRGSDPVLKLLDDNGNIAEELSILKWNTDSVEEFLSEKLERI
UniProt Q15428: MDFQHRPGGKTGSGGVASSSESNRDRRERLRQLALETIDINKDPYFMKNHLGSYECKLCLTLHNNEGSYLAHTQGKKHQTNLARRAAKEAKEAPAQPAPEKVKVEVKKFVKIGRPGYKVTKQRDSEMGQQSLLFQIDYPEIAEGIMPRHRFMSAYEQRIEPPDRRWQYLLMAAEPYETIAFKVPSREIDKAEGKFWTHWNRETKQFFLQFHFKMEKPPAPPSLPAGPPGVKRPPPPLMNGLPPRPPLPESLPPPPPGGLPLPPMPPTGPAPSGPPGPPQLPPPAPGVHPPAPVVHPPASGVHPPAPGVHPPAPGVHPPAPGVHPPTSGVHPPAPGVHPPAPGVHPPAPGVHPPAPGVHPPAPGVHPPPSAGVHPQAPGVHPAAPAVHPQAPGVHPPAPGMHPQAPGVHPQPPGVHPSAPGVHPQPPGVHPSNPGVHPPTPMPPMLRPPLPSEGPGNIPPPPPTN
UniProt Q99574: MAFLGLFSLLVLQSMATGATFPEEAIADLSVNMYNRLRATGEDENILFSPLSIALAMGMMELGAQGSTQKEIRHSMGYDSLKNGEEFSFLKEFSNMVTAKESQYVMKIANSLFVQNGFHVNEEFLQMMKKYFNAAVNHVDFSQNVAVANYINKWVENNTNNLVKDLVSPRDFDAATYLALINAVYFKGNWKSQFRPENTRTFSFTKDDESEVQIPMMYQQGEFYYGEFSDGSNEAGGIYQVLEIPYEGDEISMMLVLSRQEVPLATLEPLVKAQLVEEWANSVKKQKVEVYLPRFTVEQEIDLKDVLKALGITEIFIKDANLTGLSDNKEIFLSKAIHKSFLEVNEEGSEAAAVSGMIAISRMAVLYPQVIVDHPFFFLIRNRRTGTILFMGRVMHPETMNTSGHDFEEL
UniProt Q9BQE4, whole entry, looked up: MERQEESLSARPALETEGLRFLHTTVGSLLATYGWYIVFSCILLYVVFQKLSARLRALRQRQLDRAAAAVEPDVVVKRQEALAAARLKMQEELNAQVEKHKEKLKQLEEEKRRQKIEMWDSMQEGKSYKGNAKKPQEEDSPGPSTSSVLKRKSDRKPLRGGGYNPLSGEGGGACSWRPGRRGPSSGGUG
UniProt O95562: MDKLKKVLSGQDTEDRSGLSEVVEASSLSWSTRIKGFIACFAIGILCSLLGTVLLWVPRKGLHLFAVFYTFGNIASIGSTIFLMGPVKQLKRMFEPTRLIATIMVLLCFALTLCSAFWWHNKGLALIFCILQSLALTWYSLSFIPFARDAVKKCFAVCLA
UniProt Q53H47: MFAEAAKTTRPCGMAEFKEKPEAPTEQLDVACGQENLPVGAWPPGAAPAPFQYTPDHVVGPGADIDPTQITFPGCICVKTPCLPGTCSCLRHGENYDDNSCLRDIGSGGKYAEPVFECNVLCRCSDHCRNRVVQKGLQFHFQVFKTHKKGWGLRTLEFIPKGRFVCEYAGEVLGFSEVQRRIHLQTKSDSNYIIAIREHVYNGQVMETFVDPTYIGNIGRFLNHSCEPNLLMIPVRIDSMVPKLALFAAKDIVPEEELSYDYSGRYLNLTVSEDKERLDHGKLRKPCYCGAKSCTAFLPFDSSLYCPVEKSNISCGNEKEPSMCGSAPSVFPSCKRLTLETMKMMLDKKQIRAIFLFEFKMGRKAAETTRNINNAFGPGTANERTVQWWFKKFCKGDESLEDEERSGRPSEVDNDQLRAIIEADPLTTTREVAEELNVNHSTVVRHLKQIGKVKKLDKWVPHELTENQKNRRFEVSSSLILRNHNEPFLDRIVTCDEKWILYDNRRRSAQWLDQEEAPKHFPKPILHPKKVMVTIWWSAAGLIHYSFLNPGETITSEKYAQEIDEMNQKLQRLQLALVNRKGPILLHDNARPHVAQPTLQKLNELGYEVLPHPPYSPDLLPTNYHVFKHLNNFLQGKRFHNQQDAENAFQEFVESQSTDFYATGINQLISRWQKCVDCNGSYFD
UniProt O95470: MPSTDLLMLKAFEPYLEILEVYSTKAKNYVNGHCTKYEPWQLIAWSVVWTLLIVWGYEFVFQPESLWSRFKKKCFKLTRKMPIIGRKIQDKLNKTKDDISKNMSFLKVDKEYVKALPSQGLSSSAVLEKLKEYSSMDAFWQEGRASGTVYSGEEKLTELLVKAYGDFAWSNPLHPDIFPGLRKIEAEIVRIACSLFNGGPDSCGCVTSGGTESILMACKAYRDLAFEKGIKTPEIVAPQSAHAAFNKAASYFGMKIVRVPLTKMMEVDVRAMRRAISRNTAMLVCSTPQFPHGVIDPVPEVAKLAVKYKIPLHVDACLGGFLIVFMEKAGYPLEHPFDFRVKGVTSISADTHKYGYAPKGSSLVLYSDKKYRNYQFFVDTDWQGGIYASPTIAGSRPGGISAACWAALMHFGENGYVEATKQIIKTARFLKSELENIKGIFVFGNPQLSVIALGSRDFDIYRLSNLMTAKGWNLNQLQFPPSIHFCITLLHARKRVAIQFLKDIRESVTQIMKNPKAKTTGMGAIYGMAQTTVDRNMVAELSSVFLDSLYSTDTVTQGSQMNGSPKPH
UniProt Q9BRV8: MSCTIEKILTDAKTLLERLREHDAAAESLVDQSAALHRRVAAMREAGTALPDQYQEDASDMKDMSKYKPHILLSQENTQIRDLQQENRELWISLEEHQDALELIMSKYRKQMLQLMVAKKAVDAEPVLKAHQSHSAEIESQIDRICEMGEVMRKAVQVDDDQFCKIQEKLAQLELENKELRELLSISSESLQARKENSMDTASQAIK
UniProt Q13530: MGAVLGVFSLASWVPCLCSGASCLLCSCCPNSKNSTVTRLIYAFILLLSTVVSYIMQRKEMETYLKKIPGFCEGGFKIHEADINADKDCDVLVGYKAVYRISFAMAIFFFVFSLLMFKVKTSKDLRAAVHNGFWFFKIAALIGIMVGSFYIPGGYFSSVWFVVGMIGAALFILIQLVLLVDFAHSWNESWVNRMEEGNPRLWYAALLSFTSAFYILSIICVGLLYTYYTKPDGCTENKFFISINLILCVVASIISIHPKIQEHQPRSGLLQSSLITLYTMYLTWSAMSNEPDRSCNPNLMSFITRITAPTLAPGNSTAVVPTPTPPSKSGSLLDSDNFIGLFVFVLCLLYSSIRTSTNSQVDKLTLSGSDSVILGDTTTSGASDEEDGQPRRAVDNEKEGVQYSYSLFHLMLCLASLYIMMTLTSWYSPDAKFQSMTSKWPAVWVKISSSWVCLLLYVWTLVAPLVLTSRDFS

sotrastaurin = compound: CN1CCN(c2nc(C3=C(c4c[nH]c5ccccc45)C(=O)NC3=O)c3ccccc3n2)CC1 [sotrastaurin]
Outline: as §1

alvocidib = compound: CN1CC[C@H](c2c(O)cc(O)c3c(=O)cc(-c4ccccc4Cl)oc23)[C@H](O)C1 [alvocidib]
Outline: as §1

Tubastatin A = compound: CN1CCc2c(c3ccccc3n2Cc2ccc(C(=O)NO)cc2)C1 [Tubastatin A]
Outline: as §1

[1] = compound: CNC(=O)C1=CC=CC=C1NC2=NC(=NC=C2Cl)NC3=C(C=C(C=C3)N4CCOCC4)OC
Outline: as §1

defactinib = compound: CNC(=O)c1ccc(Nc2ncc(C(F)(F)F)c(NCc3nccnc3N(C)S(C)(=O)=O)n2)cc1 [defactinib]
Outline: as §1

rucaparib = compound: CNCc1ccc(-c2[nH]c3cc(F)cc4c3c2CCNC4=O)cc1 [rucaparib]
Outline: as §1

[2] = compound: CNc1nc(-c2ccc3c(N)n[nH]c3c2)cc(N2C[C@@H](C(=O)NC3CCCCC3)CC[C@H]2C)n1
Outline: as §1

encorafenib = compound: COC(=O)N[C@@H](C)CNc1nccc(-c2cn(C(C)C)nc2-c2cc(Cl)cc(NS(C)(=O)=O)c2F)n1 [encorafenib]
Outline: as §1

[3] = compound: COC(=O)[C@H](CCSC)NC(=O)C1=C(C=C(C=C1)NC[C@H](CS)N)C2=CC=CC=C2
Outline: as §1

Measured: log2 fold change

SH3BP5 (UniProt O60239)
inactive: saracatinib 0.051 | sotrastaurin 0.065 | alvocidib 0.083 | Tubastatin A -0.016 | [1] 0.067 | defactinib -0.012 | rucaparib -0.023 | [2] -0.068 | encorafenib 0.011 | [3] 0.018

SEMA4C (UniProt Q9C0C4)
inactive: saracatinib 0.073 | sotrastaurin 0.016 | alvocidib -0.042 | Tubastatin A 0.021 | [1] -0.016 | defactinib -0.013 | rucaparib 0.014 | [2] 0.026 | encorafenib -0.064 | [3] 0.024

SHMT2 (UniProt P34897)
inactive: saracatinib 0.015 | sotrastaurin 0.034 | alvocidib 0.003 | Tubastatin A -0.031 | [1] 0.009 | defactinib -0.011 | rucaparib -0.036 | [2] -0.062 | encorafenib -0.024 | [3] 0.015

SH3BP1 (UniProt Q9Y3L3)
inactive: saracatinib 0.028 | sotrastaurin 0.018 | alvocidib -0.036 | Tubastatin A -0.013 | [1] -0.029 | defactinib -0.002 | rucaparib -0.004 | [2] 0.004 | encorafenib 0.004 | [3] 0.009

SHC1 isoform 6 (UniProt P29353)
inactive: saracatinib 0.003 | sotrastaurin 0.028 | alvocidib -0.033 | Tubastatin A -0.027 | [1] -0.019 | defactinib -0.019 | rucaparib -0.02 | [2] -0.049 | encorafenib 0.012 | [3] 0.063

SEL1L3 (UniProt Q68CR1)
inactive: saracatinib -0.14 | sotrastaurin -0.104 | alvocidib 0.098 | Tubastatin A -0.009 | [1] 0.014 | defactinib -0.019 | rucaparib 0.021 | [2] 0.004 | encorafenib 0.051 | [3] -0.003

SERPINF2 (UniProt P08697)
inactive: saracatinib 0.225 | sotrastaurin 0.14 | alvocidib 0.038 | Tubastatin A -0.118 | [1] -0.008 | defactinib -0.077 | rucaparib -0.101 | [2] -0.049 | encorafenib 0.039 | [3] 0.123

SGMS1 (UniProt Q86VZ5)
inactive: saracatinib 0.045 | sotrastaurin 0.017 | alvocidib 0.011 | Tubastatin A -0.024 | [1] 0.007 | defactinib -0.031 | rucaparib -0.016 | [2] -0.019 | encorafenib -0.014 | [3] -0.008

SHOC2 (UniProt Q9UQ13)
inactive: saracatinib -0.03 | sotrastaurin 0.083 | alvocidib -0.102 | Tubastatin A 0.034 | [1] 0.003 | defactinib -0.039 | rucaparib 0.05 | [2] 0.092 | encorafenib -0.035 | [3] -0.049

SFXN1 (UniProt Q9H9B4)
inactive: saracatinib 0.028 | sotrastaurin -0.026 | alvocidib 0.001 | Tubastatin A -0.017 | [1] -0.022 | defactinib -0.021 | rucaparib -0.02 | [2] -0.028 | encorafenib 0.011 | [3] 0.011

SET isoform 2 (UniProt Q01105)
inactive: saracatinib 0.064 | sotrastaurin 0.024 | alvocidib -0.025 | Tubastatin A 0.016 | [1] -0.011 | defactinib 0.009 | rucaparib -0.019 | [2] 0 | encorafenib -0.004 | [3] 0.024

SIN3A (UniProt Q96ST3)
inactive: saracatinib 0.019 | sotrastaurin -0.118 | alvocidib 0.011 | Tubastatin A 0.042 | [1] 0.087 | defactinib -0.075 | rucaparib -0.021 | [2] -0.072 | encorafenib 0.024 | [3] -0.095

SELENOF (UniProt O60613)
inactive: saracatinib -0.075 | sotrastaurin -0.012 | alvocidib -0.013 | Tubastatin A -0.02 | [1] 0.001 | defactinib -0.007 | rucaparib -0.031 | [2] -0.061 | encorafenib 0.051 | [3] -0.047

SF3A2 (UniProt Q15428)
inactive: saracatinib -0.014 | sotrastaurin 0.049 | alvocidib -0.028 | Tubastatin A -0.028 | [1] 0.06 | defactinib 0.001 | rucaparib 0.081 | [2] -0.03 | encorafenib 0.03 | [3] -0.023

SEPTIN9 (UniProt Q9UHD8)
inactive: saracatinib -0.032 | sotrastaurin 0.003 | alvocidib -0.048 | Tubastatin A -0.005 | [1] -0.018 | defactinib -0.019 | rucaparib -0.059 | [2] 0.016 | encorafenib -0.005 | [3] 0.017

SERPINI1 (UniProt Q99574)
inactive: saracatinib 0.174 | sotrastaurin 0.006 | alvocidib 0.065 | Tubastatin A -0.024 | [1] 0.016 | defactinib -0.036 | rucaparib -0.126 | [2] -0.055 | encorafenib 0.067 | [3] 0.024

Two records picked at random from the list so far, as already listed:
SEPTIN9 (UniProt Q9UHD8)
inactive: saracatinib -0.032 | sotrastaurin 0.003 | alvocidib -0.048 | Tubastatin A -0.005 | [1] -0.018 | defactinib -0.019 | rucaparib -0.059 | [2] 0.016 | encorafenib -0.005 | [3] 0.017

SERPINI1 (UniProt Q99574)
inactive: saracatinib 0.174 | sotrastaurin 0.006 | alvocidib 0.065 | Tubastatin A -0.024 | [1] 0.016 | defactinib -0.036 | rucaparib -0.126 | [2] -0.055 | encorafenib 0.067 | [3] 0.024

(next part)

SEL1L (UniProt Q9UBV2)
inactive: saracatinib 0.016 | sotrastaurin -0.056 | alvocidib -0.041 | Tubastatin A 0.014 | [1] -0.024 | defactinib 0.011 | rucaparib 0.097 | [2] 0.001 | encorafenib -0.003 | [3] 0.016

SF3A1 (UniProt Q15459)
inactive: saracatinib -0.026 | sotrastaurin -0.058 | alvocidib -0.001 | Tubastatin A 0.011 | [1] 0.021 | defactinib 0.052 | rucaparib 0.034 | [2] -0.023 | encorafenib 0.043 | [3] -0.051

SELENOS (UniProt Q9BQE4)
inactive: saracatinib 0.046 | sotrastaurin -0.015 | alvocidib -0.022 | Tubastatin A 0.061 | [1] 0.003 | defactinib -0.046 | rucaparib -0.038 | [2] -0.034 | encorafenib -0.011 | [3] 0.03

SFT2D2 (UniProt O95562)
inactive: saracatinib 0.127 | sotrastaurin 0.066 | alvocidib -0.211 | Tubastatin A -0.067 | [1] -0.014 | defactinib -0.095 | rucaparib 0.107 | [2] 0.194 | encorafenib -0.259 | [3] 0.112

SGPP1 (UniProt Q9BX95)
inactive: saracatinib 0.115 | sotrastaurin -0.011 | alvocidib -0.05 | Tubastatin A -0.01 | [1] 0.049 | defactinib 0.004 | rucaparib -0.142 | [2] -0.082 | encorafenib 0 | [3] 0.046

SEPTIN6 (UniProt Q14141)
inactive: saracatinib 0.052 | sotrastaurin -0.023 | alvocidib -0.007 | Tubastatin A -0.017 | [1] -0.006 | defactinib -0.018 | rucaparib -0.026 | [2] -0.03 | encorafenib 0 | [3] 0.011

SETMAR (UniProt Q53H47)
inactive: saracatinib -0.007 | sotrastaurin -0.132 | Tubastatin A -0.402 | [1] 0.006 | defactinib -0.026 | rucaparib -0.004 | [2] 0.005 | encorafenib 0.198 | [3] -0.084

SHCBP1 (UniProt Q8NEM2)
inactive: saracatinib -0.044 | sotrastaurin 0.017 | Tubastatin A 0.174 | [1] -0.061 | defactinib -0.194 | rucaparib -0.104 | [2] -0.081 | encorafenib 0.149 | [3] -0.018

SGPL1 (UniProt O95470)
inactive: saracatinib -0.014 | sotrastaurin 0.03 | Tubastatin A -0.031 | [1] 0.064 | defactinib 0.012 | rucaparib 0.1 | [2] 0.015 | encorafenib 0.08 | [3] -0.157

SIKE1 (UniProt Q9BRV8)
inactive: saracatinib -0.025 | sotrastaurin -0.075 | alvocidib -0.067 | Tubastatin A 0.03 | [1] -0.047 | defactinib -0.067 | [2] 0.018 | [3] -0.028

SF3B1 (UniProt O75533)
inactive: saracatinib -0.051 | sotrastaurin -0.08 | alvocidib -0.055 | Tubastatin A 0.077 | [1] -0.062 | defactinib -0.095 | rucaparib 0.072 | [2] 0.015 | encorafenib 0.036 | [3] -0.046

SERINC3 (UniProt Q13530)
inactive: saracatinib 0.002 | sotrastaurin 0.119 | Tubastatin A -0.06 | [1] -0.043 | defactinib -0.016 | rucaparib 0.006 | [2] -0.216 | encorafenib -0.017 | [3] -0.065

Source: the supplement of paper PMC10849652
